Assay results as given in patent publication US20260217787A1.
No constants are given. Whether binding was seen depends on the method and setting. Some entries that bind do so weakly or less than the wild type. For part of these data: Tags and fused reporters may be left off the sequences shown.

Tests used:
[1] = biological target: MBP-fusion protein of TnCAD TBR3 variant (Trichoplusia ni); assay: ligand blot
[2] = biological target: TnCAD TBR3 variant (Trichoplusia_ni_Cadherin_TBR3_CR9-TMD), TVMV protease cleaved / purified (Trichoplusia ni); assay: ligand blot
[3] = biological target: TnCAD-TBR3 variant A (Trichoplusia ni); assay: gel filtration (figure legend)
[4] = biological target: TnCAD-TBR3 variant B (Trichoplusia ni); assay: gel filtration (figure legend)
[5] = biological target: TnCAD TBR3 variant (Trichoplusia_ni_Cadherin_TBR3_CR9-TMD), TVMV protease cleaved / purified (Trichoplusia ni); assay: pull-down, gel filtration and Biacore (figure legend)
[6] = biological target: TnCAD-TBR3 variant A (Trichoplusia ni); assay: gel filtration (superdex75 or superdex200) of a 1.2:1 molar mixture
[7] = biological target: TnCAD-TBR3 variant B (Trichoplusia ni); assay: as above
[8] = biological target: TnCAD TBR3 variant (Trichoplusia_ni_Cadherin_TBR3_CR9-TMD), TVMV protease cleaved / purified (Trichoplusia ni); assay: NiNTA pull-down through the C-terminal His tag of the receptor, SDS-PAGE
[9] = biological target: TnCAD TBR3 variant (Trichoplusia_ni_Cadherin_TBR3_CR9-TMD), TVMV protease cleaved / purified (Trichoplusia ni); assay: gel filtration (HiLoad16/60 Superdex200), SDS-PAGE of the peak fractions

Measured: binding

Cry1Ab tryptic core (from UniProt P0A370 29-607) (ligand)
binds: all assays above
